Source: paper PMC11005723, “Development of Complementary Photo‐arginine/lysine to Promote Discovery of Arg/Lys hPTMs Interactomes” (Advanced Science, 2024)
This continues a long series; more values of the same kind are listed elsewhere.

Test system: HEK293T nuclear lysates
Experiment: SILAC‐based pull‐down proteomics H4K5me1/H4K5 (probes 6/5)
Format: binding, human

Substance: probe 6: H4K5me peptide probe with photo‐arginine R(dz) and K(biotin) (SGRGKGGKGLGKGGK; photo-arginine R(dz) at 3; monomethyl-lysine at 5; K(biotin) at 15)
- C6 log (H4K5me/H4K5) (protein Q8IVW6 ARID3B, run C6): 0.5018
- B6 log2 (H4K5me/H4K5) (protein Q8N1G0 ZNF687, run B6): 1.472
- C6 log (H4K5me/H4K5) (protein Q8N1G0 ZNF687, run C6): 1.472
- B6 log2 (H4K5me/H4K5) (protein Q8N3U4 STAG2, run B6): 1.1765
- C6 log (H4K5me/H4K5) (protein Q8N3U4 STAG2, run C6): 1.1765
- B6 log2 (H4K5me/H4K5) (protein Q8N9T8 KRI1, run B6): 0.1247
- C6 log (H4K5me/H4K5) (protein Q8N9T8 KRI1, run C6): -0.00452
- B6 log2 (H4K5me/H4K5) (protein Q8NE71 ABCF1, run B6): 0.6526
- C6 log (H4K5me/H4K5) (protein Q8NE71 ABCF1, run C6): 0.6526
- B6 log2 (H4K5me/H4K5) (protein Q8TEX9 IPO4, run B6): 0.2773
- C6 log (H4K5me/H4K5) (protein Q8TEX9 IPO4, run C6): 0.1155
- B6 log2 (H4K5me/H4K5) (protein Q9BR76 CORO1B, run B6): 0.2695
- C6 log (H4K5me/H4K5) (protein Q9BR76 CORO1B, run C6): 0.2946
- B6 log2 (H4K5me/H4K5) (protein Q9BVA1 TUBB2B, run B6): 0.275
- C6 log (H4K5me/H4K5) (protein Q9BVA1 TUBB2B, run C6): 0.3193
- B6 log2 (H4K5me/H4K5) (protein Q9H0D6 XRN2, run B6): 0.3354
- C6 log (H4K5me/H4K5) (protein Q9H0D6 XRN2, run C6): 0.1529
- B6 log2 (H4K5me/H4K5) (protein Q9H4L4 SENP3, run B6): 0.6358
- C6 log (H4K5me/H4K5) (protein Q9H4L4 SENP3, run C6): 0.6358
- B6 log2 (H4K5me/H4K5) (protein Q9HB71 CACYBP, run B6): 0.3301
- C6 log (H4K5me/H4K5) (protein Q9HB71 CACYBP, run C6): 0.2706
- B6 log2 (H4K5me/H4K5) (protein Q9HC35 EML4, run B6): 0.4829
- C6 log (H4K5me/H4K5) (protein Q9HC35 EML4, run C6): 0.2579
- B6 log2 (H4K5me/H4K5) (protein Q9NPJ6 MED4, run B6): 0.3438
- C6 log (H4K5me/H4K5) (protein Q9NPJ6 MED4, run C6): 0.2919
- B6 log2 (H4K5me/H4K5) (protein Q9NQW6 ANLN, run B6): 0.4347
- C6 log (H4K5me/H4K5) (protein Q9NQW6 ANLN, run C6): 0.05664
- B6 log2 (H4K5me/H4K5) (protein Q9NX58 LYAR, run B6): 0.2731
- C6 log (H4K5me/H4K5) (protein Q9NX58 LYAR, run C6): 0.3089
- B6 log2 (H4K5me/H4K5) (protein Q9NYF8 BCLAF1, run B6): 0.1257
- C6 log (H4K5me/H4K5) (protein Q9NYF8 BCLAF1, run C6): 0.06966
- B6 log2 (H4K5me/H4K5) (protein Q9UGP8 SEC63, run B6): 0.3336
- C6 log (H4K5me/H4K5) (protein Q9UGP8 SEC63, run C6): 0.1543
- B6 log2 (H4K5me/H4K5) (protein Q9Y2W2 WBP11, run B6): 0.1222
- C6 log (H4K5me/H4K5) (protein Q9Y2W2 WBP11, run C6): -0.1351
- B6 log2 (H4K5me/H4K5) (protein Q9Y3B9 RRP15, run B6): 0.3025
- C6 log (H4K5me/H4K5) (protein Q9Y3B9 RRP15, run C6): 0.1866
- B6 log2 (H4K5me/H4K5) (protein Q9Y277 VDAC3, run B6): 0.3994
- C6 log (H4K5me/H4K5) (protein Q9Y277 VDAC3, run C6): 0.7044
- B6 log2 (H4K5me/H4K5) (protein Q9Y450 HBS1L, run B6): 0.5678
- C6 log (H4K5me/H4K5) (protein Q9Y450 HBS1L, run C6): 0.5678
- B6 log2 (H4K5me/H4K5) (protein Q9Y617 PSAT1, run B6): 0.4443
- C6 log (H4K5me/H4K5) (protein Q9Y617 PSAT1, run C6): 0.9008
- B6 log2 (H4K5me/H4K5) (protein Q53F19 C17orf85, run B6): 0.5032
- C6 log (H4K5me/H4K5) (protein Q53F19 C17orf85, run C6): 0.5032
- B6 log2 (H4K5me/H4K5) (protein Q86W42 THOC6, run B6): 0.5386
- C6 log (H4K5me/H4K5) (protein Q86W42 THOC6, run C6): 0.5386
- B6 log2 (H4K5me/H4K5) (protein Q86XP3 DDX42, run B6): 0.1334
- C6 log (H4K5me/H4K5) (protein Q86XP3 DDX42, run C6): 0.3856
- B6 log2 (H4K5me/H4K5) (protein Q96DI7 SNRNP40, run B6): 0.4677
- C6 log (H4K5me/H4K5) (protein Q96DI7 SNRNP40, run C6): -0.1362
- B6 log2 (H4K5me/H4K5) (protein Q96I25 RBM17, run B6): 1.457
- C6 log (H4K5me/H4K5) (protein Q96I25 RBM17, run C6): 1.457
- B6 log2 (H4K5me/H4K5) (protein Q96IZ0 PAWR, run B6): 0.1321
- C6 log (H4K5me/H4K5) (protein Q96IZ0 PAWR, run C6): -0.08445
- B6 log2 (H4K5me/H4K5) (protein Q96JB3 HIC2, run B6): 0.3777
- C6 log (H4K5me/H4K5) (protein Q96JB3 HIC2, run C6): 0.2014
- B6 log2 (H4K5me/H4K5) (protein Q01081 U2AF1, run B6): 0.287
- C6 log (H4K5me/H4K5) (protein Q01081 U2AF1, run C6): 0.1163
- B6 log2 (H4K5me/H4K5) (protein Q04917 YWHAH, run B6): 1.21
- C6 log (H4K5me/H4K5) (protein Q04917 YWHAH, run C6): 1.21
- B6 log2 (H4K5me/H4K5) (protein Q06587 RING1, run B6): 0.3761
- C6 log (H4K5me/H4K5) (protein Q06587 RING1, run C6): 0.01192
- B6 log2 (H4K5me/H4K5) (protein Q07955 SRSF1, run B6): 0.2855
- C6 log (H4K5me/H4K5) (protein Q07955 SRSF1, run C6): 0.2077
- B6 log2 (H4K5me/H4K5) (protein Q08945 SSRP1, run B6): 0.3762
- C6 log (H4K5me/H4K5) (protein Q08945 SSRP1, run C6): 0.3612
- B6 log2 (H4K5me/H4K5) (protein Q13769 THOC5, run B6): 0.3716
- C6 log (H4K5me/H4K5) (protein Q13769 THOC5, run C6): 0.04753
- B6 log2 (H4K5me/H4K5) (protein Q13838 DDX39B, run B6): 0.1205
- C6 log (H4K5me/H4K5) (protein Q13838 DDX39B, run C6): 0.01208
- B6 log2 (H4K5me/H4K5) (protein Q14566 MCM6, run B6): 0.1312
- C6 log (H4K5me/H4K5) (protein Q14566 MCM6, run C6): 0.07396
- B6 log2 (H4K5me/H4K5) (protein Q14669 TRIP12, run B6): 0.5234
- C6 log (H4K5me/H4K5) (protein Q14669 TRIP12, run C6): 0.5234
- B6 log2 (H4K5me/H4K5) (protein Q15007 WTAP, run B6): 0.3545
- C6 log (H4K5me/H4K5) (protein Q15007 WTAP, run C6): 0.2255
- B6 log2 (H4K5me/H4K5) (protein Q15061 WDR43, run B6): 0.1445
- C6 log (H4K5me/H4K5) (protein Q15061 WDR43, run C6): 0.005576
- B6 log2 (H4K5me/H4K5) (protein Q15424 SAFB, run B6): 0.396
- C6 log (H4K5me/H4K5) (protein Q15424 SAFB, run C6): 0.2002
- B6 log2 (H4K5me/H4K5) (protein Q15691 MAPRE1, run B6): 0.124
- C6 log (H4K5me/H4K5) (protein Q15691 MAPRE1, run C6): -0.1558
- B6 log2 (H4K5me/H4K5) (protein Q16527 CSRP2, run B6): 0.4687
- C6 log (H4K5me/H4K5) (protein Q16527 CSRP2, run C6): 0.5019
- B6 log2 (H4K5me/H4K5) (protein Q92541 RTF1, run B6): 0.277
- C6 log (H4K5me/H4K5) (protein Q92541 RTF1, run C6): 0.001749
- B6 log2 (H4K5me/H4K5) (protein Q92576 PHF3, run B6): 0.2896
- C6 log (H4K5me/H4K5) (protein Q92576 PHF3, run C6): 0.2433
- B6 log2 (H4K5me/H4K5) (protein Q92922 SMARCC1, run B6): 0.1177
- C6 log (H4K5me/H4K5) (protein Q92922 SMARCC1, run C6): 0.1599
- B6 log2 (H4K5me/H4K5) (protein Q99496 RNF2, run B6): 0.1375
- C6 log (H4K5me/H4K5) (protein Q99496 RNF2, run C6): -0.8366
- B6 log2 (H4K5me/H4K5) (protein Q99714 HSD17B10, run B6): 0.3957
- C6 log (H4K5me/H4K5) (protein Q99714 HSD17B10, run C6): -0.4382
- B6 log2 (H4K5me/H4K5) (protein Q99986 VRK1, run B6): 0.2848
- C6 log (H4K5me/H4K5) (protein Q99986 VRK1, run C6): 0.4336
- B6 log2 (H4K5me/H4K5) (protein RAB18 (Q9NP72), run B6): 0.0489
- C6 log (H4K5me/H4K5) (protein RAB18 (Q9NP72), run C6): -0.1017
- B6 log2 (H4K5me/H4K5) (protein RAD18 (Q9NS91), SILAC run B6): -0.2589
- C6 log (H4K5me/H4K5) (protein RAD18 (Q9NS91), SILAC run C6): -0.1846
- B6 log2 (H4K5me/H4K5) (protein RAD51AP1 (Q96B01), SILAC run B6): -0.3001
- C6 log (H4K5me/H4K5) (protein RAD51AP1 (Q96B01), SILAC run C6): 0.009603
- B6 log2 (H4K5me/H4K5) (protein RAN (P62826), run B6): 0.07765
- C6 log (H4K5me/H4K5) (protein RAN (P62826), run C6): 0.004508
- B6 log2 (H4K5me/H4K5) (protein RANBP1 (P43487), run B6): 0.09393
- C6 log (H4K5me/H4K5) (protein RANBP1 (P43487), run C6): 0.1855
- B6 log2 (H4K5me/H4K5) (protein RANBP2 (P49792), run B6): 0.0178
- C6 log (H4K5me/H4K5) (protein RANBP2 (P49792), run C6): 0.2411
- B6 log2 (H4K5me/H4K5) (protein RANBP3 (Q9H6Z4), SILAC run B6): -0.3884
- C6 log (H4K5me/H4K5) (protein RANBP3 (Q9H6Z4), SILAC run C6): -0.3026
- B6 log2 (H4K5me/H4K5) (protein RANGAP1 (P46060), run B6): 0.08611
- C6 log (H4K5me/H4K5) (protein RANGAP1 (P46060), run C6): 0.09539
